Two molecules from US11554182B2, “Macrocyclic complexes of alpha-emitting radionuclides and their use in targeted radiotherapy of cancer” (CORNELL UNIVERSITY, priority 2017, dated 2023) can be followed below.

A short description of the data set: ^225Ac radiolabeling of macropa and DOTA, concentration dependence (radio-TLC). Conditions: for ^225Ac radiolabeling after 5 min (radio-TLC): ligand 0.59 μM, L:M ratio 1800, RT; for ^225Ac complexed after 5 min (radio-TLC): ligand 59 μM, ^225Ac 26 kBq, 0.15 M NH4OAc pH 5.5-6, RT.

Consider `O=C(O)CN1CCN(CC(=O)O)CCN(CC(=O)O)CCN(CC(=O)O)CC1` [DOTA], for which the “^225Ac radiolabeling after 5 min (radio-TLC)” value was “failed to form a complex with ^225Ac” and the “^225Ac complexed after 5 min (radio-TLC)” value is reported as 10%.

With `O=C(O)c1cccc(CN2CCOCCOCCN(Cc3cccc(C(=O)O)n3)CCOCCOCC2)n1` [macropa, N,N′-bis[(6-carboxy-2-pyridil)methyl]-4,13-diaza-18-crown-6], the “^225Ac radiolabeling after 5 min (radio-TLC)” value was “radiolabeling was still complete” and the “^225Ac complexed after 5 min (radio-TLC)” value is “complexed all the ^225Ac”.
